PubChem BioAssay AID1347076 (National Center for Advancing Translational Sciences (NCATS), 2019)
Screen size: about 400,000 compounds; about 13,000 (3.2%) were called active. The inconclusive results got no clear call from the source; some entries with a clear call stand among them for comparison. Calls follow the shape of the dose curve; as a rule, active = well fitted cell-killing curve with a large enough effect; inconclusive = small, poorly fitted or top-dose-only effect, or effect the other way; inactive = flat fitted curve, though single readings scatter. A potency beside an inconclusive call is a rough fit, not a confirmed value.
% is scaled to controls: 0 for no effect and ±100 for the full control effect; potency is read from the fitted curve at half-maximal effect.

Test: qHTS assay for MDR1-selective chemotherapeutics: Primary screen using the drug-selected MDR subline cells KB-V1; also: nearly all actives have a fitted effect of over 60% in size
Details: KB-V1 MDR cells viability, CellTiter-Glo, 72 h; activity change, negative = cytotoxicity: at 46.1 µM (top of the series)
Summary of the method: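 qHTS viability screen in drug-selected KB-V1 MDR cells: 72 h compound treatment at 37 degrees C, ATP luminescence end point.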
With `COc1ccc(CCNC(=O)C(=O)Nc2ccc3nc4n(c(=O)c3c2)CCCCC4)cc1OC` the Potency was inconclusive: 2.91 µM [cytotoxic, partial curve, poor fit]. In the case of `COCCNC(=O)C1CCCN(C(=O)COc2ccc(Cl)cc2Cl)CC1` (stereo unspecified), the “activity change, negative = cytotoxicity” value is reported as inactive: 3.29%. In the case of `CC(C)(C)[C@@H]1COC(=O)[C@H](Cc2ccc(F)cc2)C/C=C\C[C@H](CC(=O)N(CCO)Cc2ccccc2)C(=O)N1`, the “activity change, negative = cytotoxicity” value is reported as inactive: 11.7%. In the case of `CCn1cc(/C=N/NC(=O)c2ccc(C#N)cc2F)c2ccccc21`, the Potency is reported as inconclusive: 29.1 µM [cytotoxic, single point]. With `CC(=O)c1cccc(NC(=O)C2CCCN(C(=O)c3cnn(-c4ccccc4)c3-n3cccc3)C2)c1` (stereo unspecified) the Potency was inconclusive: 16.4 µM [cytotoxic, single point]. With `Cc1ccc(S(=O)(=O)Nc2ccc3c(c2)CCC3)cc1C` the Potency was inconclusive: 23.1 µM [cytotoxic, partial curve, poor fit]. In the case of `O=C1C=C(O)CC(c2ccc(Cl)c(Cl)c2)C1` (stereo unspecified), the “activity change, negative = cytotoxicity” value is reported as inactive: 2.53%. In the case of `CCc1cccc(NC(=O)Cn2c(=O)oc3cc(S(=O)(=O)N4CCOCC4)ccc32)c1`, the “activity change, negative = cytotoxicity” value is reported as inactive: 15%. In the case of `O=C(c1ccc2c(c1)N(Cc1ccc(F)cc1)C(=O)c1ccccc1S2(=O)=O)N1CCN(Cc2ccccc2)CC1`, the activity change, negative = cytotoxicity is reported as inconclusive: -51.6% [cytotoxic]. With `O=C(CCN1C(=O)C2CCCCC2C1=O)Nc1cc(F)ccc1F` (stereo unspecified) the Potency was inconclusive: 29.1 µM [cytotoxic, single point]. For `COc1ccc(-c2nc(SCC(=O)Nc3ccc4c(c3)OCCO4)c(-c3ccc(F)cc3)[nH]2)cc1OC`, the “activity change, negative = cytotoxicity” value was inactive: 0%. In the case of `CC1=C(C(N)=O)C(c2ccc(F)cc2)n2nc(-c3ccccc3Cl)nc2N1` (stereo unspecified), the Potency is reported as inconclusive: 29.1 µM [cytotoxic, single point]. In the case of `COC(=O)[C@]12C(=O)NC[C@H](CN1c1ccc(Cl)c(C)c1)N2C`, the Potency is reported as inconclusive: 16.4 µM [rising, single point]. With `COC(=O)C[C@H]1c2ccccc2S(=O)(=O)N1c1cccc(OC)c1` the Potency was “inactive”. For `Cc1cc(=O)[nH]c(SCC2COC3(CCCCC3)O2)n1` (stereo unspecified), the Potency was inconclusive: 29.1 µM [rising, single point]. In the case of `CC1CCN(S(=O)(=O)c2ccc(NC(=O)Cn3nnc(-c4ccccc4F)n3)cc2)CC1`, the Potency is reported as inconclusive: 11.6 µM [cytotoxic, partial curve, poor fit]. In the case of `CC(=O)Nn1cnc2c(c1=O)C1(CCCCC1)Cc1ccccc1-2`, the Potency is reported as inconclusive: 18.4 µM [cytotoxic, partial curve, poor fit]. With `C=CCNC(=S)N/N=C/c1ccccc1OCCOc1ccccc1` the “activity change, negative = cytotoxicity” value was inactive: 16%. For `COc1ccc(OC(C)C(=O)N2CCc3ccccc3C2)cc1` (stereo unspecified), the Potency was inconclusive: 16.4 µM [cytotoxic, single point]. With `CNC(=O)c1[nH]cnc1C(=O)Nc1ccccc1OC` the “activity change, negative = cytotoxicity” value was inactive: -2.05%. For `CCn1c(-c2ccc(N(C)C)cc2)nc2ccccc21`, the Potency was active: 16.4 µM. In the case of `CCOC(=O)c1cc2c(=O)c3cc(C)ccc3oc2nc1C`, the “activity change, negative = cytotoxicity” value is reported as inactive: 9.89%. With `CSC1=NN(c2ccccc2)CN(c2ccccc2)N1C` the “activity change, negative = cytotoxicity” value was inactive: -10.4%. In the case of `Cc1ncc(C[n+]2csc(CCOC(=O)CC34CC5CC(CC(C5)C3)C4)c2C)c(N)n1`, the “activity change, negative = cytotoxicity” value is reported as inactive: -0.93%. In the case of `COc1cc2c(cc1NC(=O)CSc1ccc(Cl)cc1)oc1ccccc12`, the Potency is reported as inconclusive: 2.31 µM [cytotoxic, partial curve, poor fit]. With `Cc1ccc(S(=O)(=O)c2nc(S(=O)(=O)c3ccccc3)sc2N2CCN(C)CC2)cc1` the Potency was inconclusive: 29.1 µM [cytotoxic, single point]. For `CC(=O)NS(=O)(=O)c1ccc(NC(=O)c2cc3c(=O)n4ccccc4nc3s2)cc1`, the “activity change, negative = cytotoxicity” value was inactive: -6.95%. In the case of `O=C(CN1C(=O)NC2(CCCC2)C1=O)Nc1cc(Cl)ccc1N1CCOCC1`, the Potency is reported as inconclusive: 29.1 µM [cytotoxic, single point]. With `COc1ccccc1Cn1c(=O)c2ccccc2n2c(SCC(=O)N3CCCCC3)nnc12` the Potency was inconclusive: 8.2 µM [cytotoxic, partial curve, poor fit]. In the case of `COc1ccc(-c2nc(CS(=O)CC(=O)NCCc3ccc(C)cc3)c(C)o2)cc1OC` (stereo unspecified), the Potency is reported as inconclusive: 29.1 µM [rising, single point]. For `CC(=O)N(O)CCCCCNC(=O)CCC(=O)N(O)CCCCCNC(=O)CCC(=O)N(O)CCCCCN`, the Potency was inconclusive: 20.6 µM [cytotoxic, single point]. In the case of `COc1cccc(C(=O)OCCN2CCOCC2)c1`, the Potency is reported as inconclusive: 29.1 µM [rising, single point]. For `CCN(Cc1ccccc1)C(=O)Cn1c(=O)n(-c2cccc(C)c2)c(=O)c2c1c1cc(C)ccc1n2C`, the “activity change, negative = cytotoxicity” value was inactive: 1.7%. For `COc1ccnc(NCc2cccnc2)c1C#N`, the “activity change, negative = cytotoxicity” value was inactive: 3.53%. In the case of `O=C(Cn1cc(C(F)(F)F)ccc1=O)NC(c1ccccc1)c1ccccc1`, the “activity change, negative = cytotoxicity” value is reported as inactive: -11.8%. For `CCN(CC)CCCNc1ccc(-c2nnc(-c3ccc(OCC(C)C)cc3)o2)cn1`, the Potency was inconclusive: 29.1 µM [cytotoxic, single point]. In the case of `Cc1ccc(Cl)cc1NC(=S)N1CCC(c2ccccc2)C1` (stereo unspecified), the “activity change, negative = cytotoxicity” value is reported as inactive: -23.1%. For `O=C1C=C(Nc2cccc(Cl)c2)CC(c2ccco2)C1` (stereo unspecified), the Potency was inconclusive: 29.1 µM [cytotoxic, single point]. For `COc1cccc(-c2nnc(SC(C(=O)c3c[nH]c4ccccc34)c3ccccc3)n2C)c1` (stereo unspecified), the Potency was inconclusive: 16.4 µM [cytotoxic, partial curve]. In the case of `O=C(Cc1ccc(OCc2ccccc2)cc1)NCc1ccc2c(c1)OCO2`, the “activity change, negative = cytotoxicity” value is reported as inactive: -3.32%. In the case of `CCOc1ccc(NC(=O)c2ccccn2)cc1`, the Potency is reported as active: 20.6 µM. With `Cc1sc(NC(=O)c2ccco2)nc1-c1ccc2c(c1)CC(C)N2C(=O)C1CC1` (stereo unspecified) the Potency was inconclusive: 3.98 µM [cytotoxic, full curve, poor fit]. For `O=C(NCc1ccccc1)C(c1ccccc1)n1c(=O)c(-c2cc3ccccc3[nH]2)nc2ccccc21` (stereo unspecified), the Potency was inconclusive: 16.4 µM [cytotoxic, partial curve]. With `COc1cccc(NCCC(=O)c2cccc([N+](=O)[O-])c2)c1` the “activity change, negative = cytotoxicity” value was inactive: 0%. In the case of `Cc1nn(-c2ccccc2)c2nc(-c3ccncc3)cc(C(=O)NCc3ccco3)c12`, the Potency is reported as inconclusive: 20.6 µM [cytotoxic, partial curve, poor fit]. In the case of `Cc1cccc(NC(=S)N2CCn3cccc3C2c2cccnc2)c1` (stereo unspecified), the Potency is reported as active: 16.4 µM. In the case of `CC(=O)Nc1ccnc(-c2cccnc2)n1`, the “activity change, negative = cytotoxicity” value is reported as inactive: -8.74%. In the case of `CC(C)(C)c1ccc(OCC(=O)NNC(=S)NC(=O)c2ccccc2[N+](=O)[O-])c(Br)c1`, the Potency is reported as inconclusive: 7.31 µM [cytotoxic, partial curve]. In the case of `Cc1cc2ccccc2c(=O)n1CC(=O)NCC(=O)N1CCN(c2cccc(Cl)c2)CC1`, the Potency is reported as inconclusive: 3.26 µM [cytotoxic, full curve]. With `O=C(/C=C/c1ccccc1)Nc1cccc(C(=O)NCCCc2ccccc2)c1` the Potency was inconclusive: 18.4 µM [cytotoxic, single point]. For `O=C(c1ccc(OCC2CCCO2)cc1)N1CCc2ccccc2C1` (stereo unspecified), the Potency was inconclusive: 18.4 µM [cytotoxic, single point]. In the case of `CC(=O)c1c(-c2ccc(C)cc2)nc2c3ccccc3ccn12`, the Potency is reported as inconclusive: 20.6 µM [cytotoxic, single point]. With `C=CCNC(=O)/C(=C/c1ccccc1OCC)NC(=O)c1ccccc1` the Potency was active: 11.6 µM. For `C[C@H](O)C#Cc1ccc2c(c1)O[C@@H](CN(C)Cc1ccc(-c3ccccc3)cc1)[C@H](C)CN([C@@H](C)CO)S2(=O)=O`, the Potency was inconclusive: 23.1 µM [cytotoxic, partial curve, poor fit]. In the case of `O=C(O)c1ccc(NS(=O)(=O)c2cccc(C(=O)Nc3cccc(C(=O)O)c3)c2)cc1`, the “activity change, negative = cytotoxicity” value is reported as inactive: 0.116%. For `Cc1ccnc(N2C(=O)CSC2c2ccc(Cl)cc2)c1` (stereo unspecified), the Potency was inconclusive: 29.1 µM [cytotoxic, single point]. For `COc1ccc(Cc2nnc(Nc3ccc(Cl)cc3)[nH]c2=O)cc1`, the Potency was inconclusive: 18.4 µM [rising, partial curve]. In the case of `Cc1snc(S(=O)(=O)Cc2c(Cl)cccc2Cl)c1C#N`, the Potency is reported as inconclusive: 20.6 µM [cytotoxic, partial curve, poor fit]. In the case of `Cc1cc(C)c2c(=O)cc(C(=O)Nc3c(C)n(C)n(-c4ccccc4)c3=O)oc2c1`, the “activity change, negative = cytotoxicity” value is reported as inactive: 8.45%. For `COc1ccc(S(=O)(=O)NCCc2cn3nc(C)c(C)nc3n2)cc1F`, the “activity change, negative = cytotoxicity” value was inactive: -0.248%. With `Nc1nc2c(ncn2C2CCCC2)c(=O)[nH]1` the Potency was inconclusive: 29.1 µM [rising, single point]. With `CCC1(c2ccccc2)ON(c2c(Br)cccc2Br)C1=O` (stereo unspecified) the Potency was inconclusive: 25.9 µM [cytotoxic, partial curve, poor fit]. In the case of `CC(C(=O)Nc1ccc(F)cc1Cl)N1CCN(S(=O)(=O)c2cccs2)CC1` (stereo unspecified), the “activity change, negative = cytotoxicity” value is reported as inactive: 0%. With `O=c1c2cc(NC(=S)NC3CCCC3)ccc2nc2n1CCCCC2` the Potency was active: 20.6 µM. With `CCOC(=O)c1cc(=O)cc(C(=O)OCC)o1` the Potency was inconclusive: 25.9 µM [rising, single point]. In the case of `O=C1OCC/C1=C1/NCCNC1=O`, the “activity change, negative = cytotoxicity” value is reported as inactive: 13.5%. In the case of `CCOC(=O)c1c(NC(=O)c2c(C(=O)O)cccc2[N+](=O)[O-])sc2c1CCCC2`, the “activity change, negative = cytotoxicity” value is reported as inactive: 16.9%. With `COc1ccc(OC)c(-n2nnnc2SCC(=O)NCCc2ccccc2)c1` the Potency was inconclusive: 3.26 µM [cytotoxic, partial curve, poor fit]. For `COCCn1c(=O)[nH]c(=O)c2c1nc(-c1cc(Br)c3c(c1)OCO3)n2Cc1ccccc1`, the Potency was inconclusive: 16.4 µM [cytotoxic, single point]. For `CCCCCC[n+]1ccccc1/C=C/c1ccc(N(C)C)cc1`, the “activity change, negative = cytotoxicity” value was inactive: 0%. With `O=C(/C=C/c1ccccc1)N1CCN(c2cccc(Cl)n2)CC1` the Potency was active: 18.4 µM.
